From paper PMC12656381

Molecular target: T1, pea apyrase psNTP9 (PS), 4Myc-tagged, expressed in Arabidopsis seedlings (pea) (UniProt P52914)
T1 sequence: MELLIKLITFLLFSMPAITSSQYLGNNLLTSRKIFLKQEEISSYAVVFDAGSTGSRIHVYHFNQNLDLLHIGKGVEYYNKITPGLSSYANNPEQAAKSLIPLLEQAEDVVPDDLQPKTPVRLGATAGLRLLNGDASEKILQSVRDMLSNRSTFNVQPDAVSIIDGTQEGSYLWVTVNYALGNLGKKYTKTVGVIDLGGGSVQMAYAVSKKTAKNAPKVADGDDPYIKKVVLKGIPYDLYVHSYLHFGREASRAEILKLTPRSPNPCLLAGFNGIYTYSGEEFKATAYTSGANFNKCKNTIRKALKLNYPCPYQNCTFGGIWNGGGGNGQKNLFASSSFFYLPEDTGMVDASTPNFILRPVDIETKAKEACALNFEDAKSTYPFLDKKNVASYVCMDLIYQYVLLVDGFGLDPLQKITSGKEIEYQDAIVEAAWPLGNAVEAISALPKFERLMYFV
Assay: affinity purification with mass spectrometry; extracts of 7-day-old Arabidopsis seedlings (50 mM Tris pH 7.5, 150 mM NaCl, 1 mM EDTA, 0.1% Tween-20) incubated with EZview Red Anti-c-Myc Affinity Gel for 1 h at 4 °C, washed with TBS-T, eluted with 0.2 M glycine pH 2.6; LC-MS; hits also found in Columbia control seedlings discarded

- binding: binds
B1: Scarecrow-like protein 30 (SCL30) (protein, UniProt Q9SNB8 1-583)
chain: MDAILPVPVDGFRFDTGSGSCCKPRNNLESGTTNRFTCFNESESQSNPSPTESKVCSDYLPVFKYINDMLMEEDLEGQSCMLEDSLALQAAERSFFEVLQDQTPISGDLEDGSLGNFSSITSLHQPEVSEESTRRYRHRDDDEDDDLESGRKSKLPAISTVDELAEKFEEVLLVCQKNDQGEATEKKTRHVKGSSNRYKQQKSDQPVDMRNLLMQCAQAVASFDQRRAFEKLKEIREHSSRHGDATQRLGYHFAEALEARITGTMTTPISATSSRTSMVDILKAYKGFVQACPTLIMCYFTANRTINELASKATTLHIIDFGILYGFQWPCLIQALSKRDIGPPLLRVTGIELPQSGFRPSERVEETGRRLKRFCDKFNVPFEYSFIAKNWENITLDDLVINSGETTVVNCILRLQYTPDETVSLNSPRDTALKLFRDINPDLFVFAEINGTYNSPFFLTRFREALFHCSSLFDMYETTLSEDDNCRTLVERELIIRDAMSVIACEGSERFARPETYKQWQVRILRAGFRPAKLSKQIVKDGKEIVKERYHKDFVIDNDNHWMFQGWKGRVLYAVSCWKPAKK

Results are given in words; binding and its absence hold for the method and conditions named. In cells and extracts the contact can be indirect. Here binding means that the protein was enriched with, or labelled near, the bait; the list need not be complete. Where a sequence is shown, tags or fusion partners need not be part of it.
